No constants are given. Whether binding was seen depends on the method and setting. For some assays here: Binding seen in cells or lysates may run through a third protein. Some results given as binding are weak or reduced against the parent protein; the word gives no strength. Where a sequence is shown, tags or fusion partners need not be part of it. One block for each binder: values may come before it.
How the values were obtained:
[1] = substrate: CBP (human) (UniProt Q92793); assay: AP-MS and/or BioID2 in HEK293 cells (method not told for the pair)
p300 (human) [2] = biological target: p300 (human) (UniProt Q09472); assay: as above
SMARCA4 (human) = SMARCA4 (human) (UniProt P51532); assay: AP-MS and/or BioID2 in HEK293 cells
SMARCA2 (human) = SMARCA2 (human) (UniProt P51531); assay: AP-MS and/or BioID2 in HEK293 cells
BRD3 (human) = BRD3 (human) (UniProt Q15059); assay: AP-MS and/or BioID2 in HEK293 cells
BRD2 (human) = BRD2 (human) (UniProt P25440); assay: AP-MS and/or BioID2 in HEK293 cells
p300 (human) [3] = biological target: p300 (human) (UniProt Q09472); assay: AP-MS (FIG. 14A)
AP-MS (FIG. 14A) = substrate: CBP (human) (UniProt Q92793); assay: AP-MS (FIG. 14A)
[4] = substrate: CBP (human) (UniProt Q92793); assay: AP-MS (anti-FLAG), HEK293 cells
p300 (human) [5] = biological target: p300 (human) (UniProt Q09472); assay: AP-MS (anti-FLAG), HEK293 cells

Amino acid sequences for entries named in this document (tags omitted). Residues count along the entry.
UniProt Q92793, residues 2-2442: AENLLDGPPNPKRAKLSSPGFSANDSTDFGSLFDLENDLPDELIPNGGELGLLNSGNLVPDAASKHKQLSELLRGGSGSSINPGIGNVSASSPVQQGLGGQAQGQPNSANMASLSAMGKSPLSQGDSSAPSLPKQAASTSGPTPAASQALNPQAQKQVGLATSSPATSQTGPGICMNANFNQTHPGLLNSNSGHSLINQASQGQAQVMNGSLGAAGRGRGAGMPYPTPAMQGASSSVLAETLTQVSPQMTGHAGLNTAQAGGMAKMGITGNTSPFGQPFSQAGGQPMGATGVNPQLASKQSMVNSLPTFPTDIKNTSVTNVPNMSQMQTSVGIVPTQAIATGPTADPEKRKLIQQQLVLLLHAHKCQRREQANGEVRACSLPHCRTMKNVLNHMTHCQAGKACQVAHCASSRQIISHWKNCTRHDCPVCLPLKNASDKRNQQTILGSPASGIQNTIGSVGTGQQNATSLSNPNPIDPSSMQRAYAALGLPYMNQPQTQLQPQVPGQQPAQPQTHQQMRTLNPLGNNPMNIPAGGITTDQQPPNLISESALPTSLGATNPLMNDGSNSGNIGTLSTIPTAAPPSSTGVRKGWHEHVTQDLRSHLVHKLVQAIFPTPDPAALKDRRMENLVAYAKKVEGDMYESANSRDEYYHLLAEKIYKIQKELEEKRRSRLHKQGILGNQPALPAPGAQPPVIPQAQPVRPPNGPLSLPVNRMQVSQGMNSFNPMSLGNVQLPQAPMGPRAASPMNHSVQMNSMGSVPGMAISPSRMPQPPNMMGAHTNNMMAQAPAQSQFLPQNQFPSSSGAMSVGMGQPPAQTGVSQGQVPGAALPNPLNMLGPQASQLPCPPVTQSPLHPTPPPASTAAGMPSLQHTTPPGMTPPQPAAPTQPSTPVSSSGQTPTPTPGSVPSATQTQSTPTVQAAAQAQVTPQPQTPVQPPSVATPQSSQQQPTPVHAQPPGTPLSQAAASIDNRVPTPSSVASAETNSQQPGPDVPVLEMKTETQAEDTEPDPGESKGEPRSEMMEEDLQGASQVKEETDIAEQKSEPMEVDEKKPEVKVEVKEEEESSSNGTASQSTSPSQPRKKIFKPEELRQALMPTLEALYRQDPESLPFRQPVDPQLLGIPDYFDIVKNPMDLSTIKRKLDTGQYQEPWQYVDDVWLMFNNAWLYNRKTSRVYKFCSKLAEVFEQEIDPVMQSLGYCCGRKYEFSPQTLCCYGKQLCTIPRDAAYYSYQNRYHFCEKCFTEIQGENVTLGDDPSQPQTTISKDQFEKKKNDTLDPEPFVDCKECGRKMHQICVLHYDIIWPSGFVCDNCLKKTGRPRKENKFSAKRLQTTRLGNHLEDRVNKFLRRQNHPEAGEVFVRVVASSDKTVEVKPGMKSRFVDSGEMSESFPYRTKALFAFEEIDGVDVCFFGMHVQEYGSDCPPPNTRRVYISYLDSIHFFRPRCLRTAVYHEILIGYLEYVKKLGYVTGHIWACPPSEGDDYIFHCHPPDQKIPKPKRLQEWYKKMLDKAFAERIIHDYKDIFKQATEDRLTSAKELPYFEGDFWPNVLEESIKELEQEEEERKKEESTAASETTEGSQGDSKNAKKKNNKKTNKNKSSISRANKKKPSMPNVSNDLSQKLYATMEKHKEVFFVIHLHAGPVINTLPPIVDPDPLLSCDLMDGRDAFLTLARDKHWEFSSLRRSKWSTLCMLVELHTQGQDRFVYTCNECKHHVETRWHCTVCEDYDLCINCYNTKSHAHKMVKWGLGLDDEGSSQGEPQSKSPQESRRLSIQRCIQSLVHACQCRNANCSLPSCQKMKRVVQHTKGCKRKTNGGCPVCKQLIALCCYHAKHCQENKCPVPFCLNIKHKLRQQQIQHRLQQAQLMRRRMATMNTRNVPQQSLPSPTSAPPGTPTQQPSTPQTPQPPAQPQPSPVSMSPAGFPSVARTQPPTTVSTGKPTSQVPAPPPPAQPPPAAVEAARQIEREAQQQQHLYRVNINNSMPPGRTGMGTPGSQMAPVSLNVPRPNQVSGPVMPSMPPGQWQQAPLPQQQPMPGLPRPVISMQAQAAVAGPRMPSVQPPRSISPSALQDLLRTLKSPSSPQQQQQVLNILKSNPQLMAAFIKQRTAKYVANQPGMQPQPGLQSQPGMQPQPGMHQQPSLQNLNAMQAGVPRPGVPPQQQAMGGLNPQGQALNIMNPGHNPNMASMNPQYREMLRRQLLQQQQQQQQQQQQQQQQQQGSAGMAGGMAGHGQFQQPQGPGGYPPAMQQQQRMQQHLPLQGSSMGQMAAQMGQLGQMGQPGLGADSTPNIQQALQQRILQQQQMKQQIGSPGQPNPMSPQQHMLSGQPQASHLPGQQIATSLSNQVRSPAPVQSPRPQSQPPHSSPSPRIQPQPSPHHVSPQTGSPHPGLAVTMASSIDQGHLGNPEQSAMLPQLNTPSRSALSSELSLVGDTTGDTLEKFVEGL
UniProt Q09472, residues 2-2414: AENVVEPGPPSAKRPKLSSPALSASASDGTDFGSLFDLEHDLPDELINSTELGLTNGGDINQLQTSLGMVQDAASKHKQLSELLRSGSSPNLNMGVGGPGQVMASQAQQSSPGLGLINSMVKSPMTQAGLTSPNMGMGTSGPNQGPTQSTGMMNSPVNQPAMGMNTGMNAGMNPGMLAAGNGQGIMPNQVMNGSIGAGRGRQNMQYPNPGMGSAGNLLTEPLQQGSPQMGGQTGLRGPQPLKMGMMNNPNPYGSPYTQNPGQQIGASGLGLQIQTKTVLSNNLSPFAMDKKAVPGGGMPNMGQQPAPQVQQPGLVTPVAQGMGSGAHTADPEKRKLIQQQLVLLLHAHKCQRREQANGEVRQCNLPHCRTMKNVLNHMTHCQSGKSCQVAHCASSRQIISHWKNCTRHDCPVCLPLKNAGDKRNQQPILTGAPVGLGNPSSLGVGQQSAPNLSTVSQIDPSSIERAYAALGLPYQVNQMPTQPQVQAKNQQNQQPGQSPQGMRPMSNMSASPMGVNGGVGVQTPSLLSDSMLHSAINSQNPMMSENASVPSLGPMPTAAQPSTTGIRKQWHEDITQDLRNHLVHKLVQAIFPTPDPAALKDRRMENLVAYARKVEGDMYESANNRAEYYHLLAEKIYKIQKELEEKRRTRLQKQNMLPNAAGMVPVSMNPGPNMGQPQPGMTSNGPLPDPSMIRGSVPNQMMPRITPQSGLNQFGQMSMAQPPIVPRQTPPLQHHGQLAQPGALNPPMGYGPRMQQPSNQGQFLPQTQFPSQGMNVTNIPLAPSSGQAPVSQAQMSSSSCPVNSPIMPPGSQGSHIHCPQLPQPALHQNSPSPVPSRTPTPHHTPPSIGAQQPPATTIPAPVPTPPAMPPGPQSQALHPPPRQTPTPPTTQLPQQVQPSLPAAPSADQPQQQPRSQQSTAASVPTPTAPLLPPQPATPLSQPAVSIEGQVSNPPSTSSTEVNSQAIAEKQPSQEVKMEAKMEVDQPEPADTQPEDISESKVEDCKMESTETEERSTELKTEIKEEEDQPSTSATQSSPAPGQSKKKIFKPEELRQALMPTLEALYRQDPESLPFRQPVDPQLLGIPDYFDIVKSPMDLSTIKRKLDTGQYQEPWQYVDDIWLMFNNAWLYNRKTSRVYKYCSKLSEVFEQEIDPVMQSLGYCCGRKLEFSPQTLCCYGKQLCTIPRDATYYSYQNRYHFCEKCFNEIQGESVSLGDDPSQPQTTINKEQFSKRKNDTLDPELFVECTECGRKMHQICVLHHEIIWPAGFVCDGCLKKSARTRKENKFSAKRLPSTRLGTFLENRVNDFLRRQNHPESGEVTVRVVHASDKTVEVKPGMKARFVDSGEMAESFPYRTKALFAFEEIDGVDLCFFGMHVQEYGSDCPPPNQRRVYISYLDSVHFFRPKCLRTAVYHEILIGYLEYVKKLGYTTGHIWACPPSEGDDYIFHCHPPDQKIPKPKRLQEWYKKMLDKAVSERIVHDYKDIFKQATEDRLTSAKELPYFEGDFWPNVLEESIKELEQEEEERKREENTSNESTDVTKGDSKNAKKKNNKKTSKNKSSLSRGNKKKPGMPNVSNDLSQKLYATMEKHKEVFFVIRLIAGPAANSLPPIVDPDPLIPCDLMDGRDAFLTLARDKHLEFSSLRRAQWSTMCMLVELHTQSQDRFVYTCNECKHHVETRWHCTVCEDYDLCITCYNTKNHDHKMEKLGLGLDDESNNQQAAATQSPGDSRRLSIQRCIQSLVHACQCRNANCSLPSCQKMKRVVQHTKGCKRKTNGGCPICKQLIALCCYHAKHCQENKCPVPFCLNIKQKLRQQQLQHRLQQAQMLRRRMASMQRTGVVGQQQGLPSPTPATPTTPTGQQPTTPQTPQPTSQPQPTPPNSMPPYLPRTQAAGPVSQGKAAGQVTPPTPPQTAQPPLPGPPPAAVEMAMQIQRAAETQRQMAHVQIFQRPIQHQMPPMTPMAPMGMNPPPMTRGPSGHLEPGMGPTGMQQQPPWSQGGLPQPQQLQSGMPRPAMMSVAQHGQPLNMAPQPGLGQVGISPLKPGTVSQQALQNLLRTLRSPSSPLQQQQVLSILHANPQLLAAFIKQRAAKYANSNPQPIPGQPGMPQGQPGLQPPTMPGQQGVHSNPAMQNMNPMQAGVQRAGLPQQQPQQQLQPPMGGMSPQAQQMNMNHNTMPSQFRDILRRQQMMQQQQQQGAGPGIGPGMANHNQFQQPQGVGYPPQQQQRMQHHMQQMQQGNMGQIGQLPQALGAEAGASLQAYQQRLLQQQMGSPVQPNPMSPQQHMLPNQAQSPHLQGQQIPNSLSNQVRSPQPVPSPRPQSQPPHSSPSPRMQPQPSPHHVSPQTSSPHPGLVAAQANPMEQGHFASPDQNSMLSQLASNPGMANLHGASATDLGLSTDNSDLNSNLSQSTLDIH
UniProt Q15059, residues 2-726: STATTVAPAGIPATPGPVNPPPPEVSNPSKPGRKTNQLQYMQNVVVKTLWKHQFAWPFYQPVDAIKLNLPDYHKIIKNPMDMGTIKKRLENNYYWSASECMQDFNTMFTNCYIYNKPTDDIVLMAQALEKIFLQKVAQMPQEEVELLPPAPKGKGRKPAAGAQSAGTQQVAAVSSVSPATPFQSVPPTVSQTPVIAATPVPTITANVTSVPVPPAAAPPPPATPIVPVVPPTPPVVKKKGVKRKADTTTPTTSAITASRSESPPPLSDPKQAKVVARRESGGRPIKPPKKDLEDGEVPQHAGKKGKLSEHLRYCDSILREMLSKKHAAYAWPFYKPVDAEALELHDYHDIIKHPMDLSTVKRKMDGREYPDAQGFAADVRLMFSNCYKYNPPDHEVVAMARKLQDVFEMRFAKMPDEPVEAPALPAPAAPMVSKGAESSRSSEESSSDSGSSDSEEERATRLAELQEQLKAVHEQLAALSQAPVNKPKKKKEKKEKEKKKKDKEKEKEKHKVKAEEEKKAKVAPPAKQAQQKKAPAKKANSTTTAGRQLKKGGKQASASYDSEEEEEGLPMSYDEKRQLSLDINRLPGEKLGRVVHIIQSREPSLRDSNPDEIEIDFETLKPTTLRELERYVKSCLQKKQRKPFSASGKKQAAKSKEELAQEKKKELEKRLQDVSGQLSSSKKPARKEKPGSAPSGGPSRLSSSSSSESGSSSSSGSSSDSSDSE
UniProt P25440: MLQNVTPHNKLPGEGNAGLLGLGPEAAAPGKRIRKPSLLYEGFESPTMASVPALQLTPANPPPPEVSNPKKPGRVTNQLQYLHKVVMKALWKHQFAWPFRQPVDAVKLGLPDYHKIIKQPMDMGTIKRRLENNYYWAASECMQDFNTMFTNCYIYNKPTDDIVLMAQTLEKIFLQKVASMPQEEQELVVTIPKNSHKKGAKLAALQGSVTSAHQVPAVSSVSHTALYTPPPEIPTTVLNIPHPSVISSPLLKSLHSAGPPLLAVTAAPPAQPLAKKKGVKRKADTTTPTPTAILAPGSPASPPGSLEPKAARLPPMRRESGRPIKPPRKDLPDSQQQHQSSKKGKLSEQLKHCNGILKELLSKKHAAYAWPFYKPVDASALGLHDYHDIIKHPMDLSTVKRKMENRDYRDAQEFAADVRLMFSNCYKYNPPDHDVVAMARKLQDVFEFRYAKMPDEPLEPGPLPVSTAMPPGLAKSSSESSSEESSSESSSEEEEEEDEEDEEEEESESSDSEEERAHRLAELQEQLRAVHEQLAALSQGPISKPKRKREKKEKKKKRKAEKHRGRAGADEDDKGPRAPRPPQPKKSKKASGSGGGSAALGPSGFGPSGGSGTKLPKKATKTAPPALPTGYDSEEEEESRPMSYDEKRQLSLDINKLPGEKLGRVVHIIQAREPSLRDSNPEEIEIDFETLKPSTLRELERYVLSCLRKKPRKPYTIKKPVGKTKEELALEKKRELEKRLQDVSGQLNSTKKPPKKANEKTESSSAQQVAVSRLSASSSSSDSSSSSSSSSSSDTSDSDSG

B1: DCAF7 fused to BioID2 (BirA from Aquifex aeolicus) and FLAG (protein, human;Aquifex aeolicus, UniProt P61962 1-342, looked up, not shown: small tags and cut ends)
chain: MSLHGKRKEIYKYEAPWTVYAMNWSVRPDKRFRLALGSFVEEYNNKVQLVGLDEESSEFICRNTFDHPYPTTKLMWIPDTKGVYPDLLATSGDYLRVWRVGETETRLECLLNNNKNSDFCAPLTSFDWNEVDPYLLGTSSIDTTCTIWGLETGQVLGRVNLVSGHVKTQLIAHDKEVYDIAFSRAGGGRDMFASVGADGSVRMFDLRHLEHSTIIYEDPQHHPLLRLCWNKQDPNYLATMAMDGMEVVILDVRVPCTPVARLNNHRACVNGIAWAPHSSCHICTAADDHQALIWDIQQMPRAIEDPILAYTAEGEINNVQWASTQPDWIAICYNNCLEILRV
- binding [1]: binds
- binding (p300 (human) [2]): binds

B3: SPDYE4 fused to BioID2 (BirA from Aquifex aeolicus) and FLAG (protein, human;Aquifex aeolicus, UniProt A6NLX3 1-237, looked up, not shown: small tags and cut ends)
chain: MASGQARPPFEEESPQPSTTVRSPEVVVDDEVPGPSAPWIDPSPQPQSLGLKRKSEWSDESEEELEEELELERAPEPEDTWVVETLCGLKMKLKRKRASSVLPEHHEAFNRLLGDPVVQKFLAWDKDLRVSDKYLLAMVIAYFSRAGLFSWQYQRIHFFLALYLASDMEEDNQAPKQDIFSFLYGKNYSQRPLFHKLRYQLLCSMRWRTWVSPEEMEEIQAYDPEHWVWARDRTLIS
- binding (BRD3 (human)): binds
- binding (BRD2 (human)): binds

B4: FAM90A1 fused to BioID2 (BirA from Aquifex aeolicus) and FLAG (protein, human;Aquifex aeolicus, UniProt Q86YD7 1-464, looked up, not shown: small tags and cut ends)
chain: MMARRDPKPGAKRLVRAQTLQKQRRAPVGPRAPPPDEEDPRLKCKNCEAFGHTARSTRCPMKCWKAALVPPNFGEKEGKENLKPWKPQVEANPGPLNKDKGEKEERPRPQDPQRKALLHIFSRKPPEKPLPNQKGSTESSDYLRVASGPMPVHTTSKRPRVDPVLSDRSATEMSDRGSVLASLSPLRKASLSSSSSLGPKERQTGAAADIPQTAVRHQGPEPLLVVKPTHSSPAGGCREVPQAASKTHGLLQAVSPQAQDKRPAVTSQPCPPAATHSLGLGSNLSFGPGAKRSAPAPIQACLNFPKKPRLGPFQIPESAIQGGELGAPENLQPPPAATELGPRTSPQTGTRTPAQVLSGDRQPPHSRPCLPTAQACTMSHHPAASHDGAQPLRVLFRRLENGRWSSSLLTAPSFHSPEKPGAFLAQSPHVSEKSEGPCVRVPPSVLYEDLQVPSSSEDSDSDLE
- binding (BRD3 (human)): binds
- binding (BRD2 (human)): binds

B5: FAM22F/NUTM2F fused to BioID2 (BirA from Aquifex aeolicus) and FLAG (protein, human;Aquifex aeolicus, UniProt A1L443 1-756, looked up, not shown: small tags and cut ends)
chain: MASNGAYPVLGPGVTVNPGTSLSVFTALPFATPAPGPAHRPPLVTAVVPPAGPLVLSAFPSTPLVAGQDGRGPSGAGASNVFVQMRTEVGPVKPPQAQTLILTQAPLVWQAPGTLCGGVMCPPPLLLAAAPGVPVTSAQVVGGTQACEGGWSHGLPLPPPPPAAQVAPIVSPGNARPWPQGAHGEGSLAPSQAKARPDDSCKPKSVYENFRLWQHYKPLARRHLPQSPDTEALSCFLIPVLRSLARRKPTMTLEEGLWQAMREWQHTSNFDRMIFYEMAEKFLEFEAEEEMQIQKSQWMKGPQSLPPPAPPRLEPRGPPAPEVVKQPVYLPSKDGPKAPTACLPPPRPQRPAETKAHLPPPRPQRPAETNAHLPPPRPQRPAETKVPEEIPPEVVQEYVDIMEELLGSHPGDTGEPEGQREKGKVEQPQEEDGITSDPGLLSYIDKLCSQEDFVTKVEAVIHPRFLEELLSPDPQMDFLALSQELEQEEGLTLAQLVEKRLLSLKEKGCGRAAPRHGTARLDSSPSEFAAGQEAAREVPDPQQRVSVETSPPQTAAQDPQGQGRVRTGMARSEDPAVLLGCQDSPRLKAVRPTSPPQDHRPTCPGLGTKDALGLPGESPVKESHGLAKGSSEETELPGMVYVVGSHHRLRPWRLSQSPVPSSGLLSPGGRGPQGALQSPSAQKRGLSPSPSPASKSKKRPLFGSPSPAEKTPHPGPGLRVSGEQSLAWGLGGPSQSQKRKGDPLASRRKKKRHCSQ
- binding [1]: binds
- binding (p300 (human) [2]): binds

Results, then the binder that gave them:

- binding (SMARCA4 (human)): binds
- binding (SMARCA2 (human)): binds
B2: SS18L2 fused to BioID2 (BirA from Aquifex aeolicus) and FLAG (protein, human;Aquifex aeolicus, UniProt Q9UHA2 1-77, looked up, not shown: small tags and cut ends)
chain: MSVAFVPDWLRGKAEVNQETIQRLLEENDQLIRCIVEYQNKGRGNECVQYQHVLHRNLIYLATIADASPTSTSKAME

- binding (p300 (human) [3]): binds
- binding (AP-MS (FIG. 14A)): binds
- binding [4]: binds
- binding (p300 (human) [5]): binds
B6: SRF-C3orf62 fusion tagged with BirA-FLAG (protein, human;Aquifex aeolicus, UniProt P11831 1-338, looked up, not shown: small tags and cut ends)
chain: MLPTQAGAAAALGRGSALGGSLNRTPTGRPGGGGGTRGANGGRVPGNGAGLGPGRLEREAAAAAATTPAPTAGALYSGSEGDSESGEEEELGAERRGLKRSLSEMEIGMVVGGPEASAAATGGYGPVSGAVSGAKPGKKTRGRVKIKMEFIDNKLRRYTTFSKRKTGIMKKAYELSTLTGTQVLLLVASETGHVYTFATRKLQPMITSETGKALIQTCLNSPDSPPRSDPTTDQRMSATGFEETDLTYQVSESDSSGETKDTLKPAFTVTNLPGTTSTIQTAPSTSTTMQVSSGPSFPITNYLAPVSASVSPSAVSSANGTVLKSTGSGPVSSGGLMQAAVPCAPENENPAFATNHAPVNAKPHALCPERKPLTSKENVLMHSSILAPERESWRTAGEGENWRKENLRKDMERDLKADSNMPLNNSSQEVTKDLLDMIDHTSIRTIEELAGKIEFENELNHMCGHCQDSPFKEEAWALLMDKSPQKATDADPGSLKQAFDDHNIVETVLDLEEDYNVMTSFKYQIE
